Measured values from PMC3095777.
Negatives hold for the conditions tested. At least one verdict rests on a figure or table, not on a statement of the authors. For some of these results: Where a protein sequence is shown, tags need not be part of it.

The chains behind the UniProt entries cited, without tags or fusion partners. Residues count along the entry.
UniProt P02769, 25-607: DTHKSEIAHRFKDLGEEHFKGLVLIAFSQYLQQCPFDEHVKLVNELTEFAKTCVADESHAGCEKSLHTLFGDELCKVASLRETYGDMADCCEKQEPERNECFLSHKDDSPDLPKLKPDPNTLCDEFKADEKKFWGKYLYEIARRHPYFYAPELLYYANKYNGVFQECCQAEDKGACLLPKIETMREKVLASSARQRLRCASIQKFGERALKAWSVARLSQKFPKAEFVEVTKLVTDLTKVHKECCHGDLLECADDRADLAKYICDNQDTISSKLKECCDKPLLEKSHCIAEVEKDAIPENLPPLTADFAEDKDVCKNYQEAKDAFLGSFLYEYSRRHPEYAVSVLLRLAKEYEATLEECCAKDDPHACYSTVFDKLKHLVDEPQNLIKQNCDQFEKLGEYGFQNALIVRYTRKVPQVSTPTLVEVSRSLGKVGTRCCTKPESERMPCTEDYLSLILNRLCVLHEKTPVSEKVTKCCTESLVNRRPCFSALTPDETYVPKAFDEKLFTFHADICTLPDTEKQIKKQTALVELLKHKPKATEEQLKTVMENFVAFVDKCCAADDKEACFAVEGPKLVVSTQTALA

Columns and labels:
Experiment in all cases: fluorescence anisotropy
[1] = molecular target: T1, MTH1203 KHb (Methanothermobacter thermautotrophicus delta H) (UniProt O27271); conditions: 20 mM Tris pH 8.0, 1 M NaCl, 5 nM 5'-fluorescein RNA; temperature not stated; recombinant protein; residues 72-136; protein details: N-terminal His6; label: 5' fluorescein
T1 sequence (looked up): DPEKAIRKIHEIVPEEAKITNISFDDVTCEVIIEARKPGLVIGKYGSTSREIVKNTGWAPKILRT

[2] = molecular target: T2, MTH1203 KHa (Methanothermobacter thermautotrophicus delta H) (UniProt O27271); conditions: 20 mM Tris pH 8.0, 1 M NaCl, 5 nM 5'-fluorescein RNA; temperature not stated; recombinant protein; residues 3-68; protein details: N-terminal His6; label: 5' fluorescein
T2 sequence (looked up): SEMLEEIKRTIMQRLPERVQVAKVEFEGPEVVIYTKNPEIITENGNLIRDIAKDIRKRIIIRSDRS

[3] = molecular target: T3, MTH1203 KHa-b (Methanothermobacter thermautotrophicus delta H) (UniProt O27271); conditions: 20 mM Tris pH 8.0, 1 M NaCl, 5 nM 5'-fluorescein RNA; temperature not stated; recombinant protein; residues 3-136; protein details: N-terminal His6; label: 5' fluorescein
T3 sequence (looked up): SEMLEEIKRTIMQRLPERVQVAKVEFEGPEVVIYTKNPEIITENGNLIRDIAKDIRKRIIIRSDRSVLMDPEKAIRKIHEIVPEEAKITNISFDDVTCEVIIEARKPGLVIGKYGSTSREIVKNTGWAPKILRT

BSA = BSA (UniProt P02769); conditions: 20 mM Tris pH 8.0, 1 M NaCl, 5 nM 5'-fluorescein RNA; temperature not stated; commercial protein; label: 5' fluorescein

Measured: binding result

CCCCCCC [C7]
no binding: [1] | [2] | [3]

UUUUUUU [U7]
no binding: BSA | [1] | [2] | [3]

GGGGGGG [G7]
no binding: [1] | [2] | [3]

AAAAAAA [A7]
no binding: [1] | [2] | [3]
